The source of these data is publication PMC2816692, “Structural and Biochemical Characterization of SrcA, a Multi-Cargo Type III Secretion Chaperone in Salmonella Required for Pathogenic Association with a Host” (PLoS Pathogens, 2010).

By UniProt entry, the sequences of proteins in these tests, tags left out. Where a name states a change or a piece, a line headed by the entry shows the natural chain unless it says otherwise.
UniProt Q8ZNP3: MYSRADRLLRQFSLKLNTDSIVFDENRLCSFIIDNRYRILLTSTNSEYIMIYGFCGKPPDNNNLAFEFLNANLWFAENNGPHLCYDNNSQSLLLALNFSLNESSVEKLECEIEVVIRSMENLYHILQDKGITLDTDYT

The experiment concerns the target SrcA-FLAG (chromosomal srcA-FLAG allelic replacement) (Salmonella enterica serovar Typhimurium strain SL1344) (UniProt Q8ZNP3). Put plainly: affinity purification with mass spectrometry; anti-FLAG M2-agarose immunoprecipitation of SrcA-FLAG from mixed heavy and light SILAC lysates of S. Typhimurium grown in SILAC-LPM; 16 h at 4°C; quantitative LC-MS/MS.

These are yes or no findings as the source states them, for the method shown. Binding seen in cells or lysates may run through a third protein. Here binding means that the protein was enriched with, or labelled near, the bait; the list need not be complete. No binding means not detected with the bait.

B1: SseK2 (STM2137) (protein, UniProt Q8ZNP4 1-348)
chain: MARFNAAFTRIKIMFSRIRGLISCQSNTQTIAPTLSPPSSGHVSFAGIDYPLLPLNHQTPLVFQWFERNPDRFGQNEIPIINTQKNPYLNNIINAAIIEKERIIGIFVDGDFSKGQRKALGKLEQNYRNIKVIYNSDLNYSMYDKKLTTIYLENITKLEAQSASERDEVLLNGVKKSLEDVLKNNPEETLISSHNKDKGHLWFDFYRNLFLLKGSDAFLEAGKPGCHHLQPGGGCIYLDADMLLTDKLGTLYLPDGIAIHVSRKDNHVSLENGIIAVNRSEHPALIKGLEIMHSKPYGDPYNDWLSKGLRHYFDGSHIQDYDAFCDFIEFKHENIIMNTSSLTASSWR
On to B1, for which the binding entry is “no binding”.
